Experimental data: paper PMC11845518
Where a chain is given by its changes, count along the chain named. No constants are given. Whether binding was seen depends on the method and setting. In cells and extracts the contact can be indirect. Some binding calls cover weakened binding; strength is not graded here. For some assays here: Tags and fused reporters may be left off the sequences shown.

Protein sequences, listed by entry. Tags and fused reporters are not part of them.
UniProt Q13557: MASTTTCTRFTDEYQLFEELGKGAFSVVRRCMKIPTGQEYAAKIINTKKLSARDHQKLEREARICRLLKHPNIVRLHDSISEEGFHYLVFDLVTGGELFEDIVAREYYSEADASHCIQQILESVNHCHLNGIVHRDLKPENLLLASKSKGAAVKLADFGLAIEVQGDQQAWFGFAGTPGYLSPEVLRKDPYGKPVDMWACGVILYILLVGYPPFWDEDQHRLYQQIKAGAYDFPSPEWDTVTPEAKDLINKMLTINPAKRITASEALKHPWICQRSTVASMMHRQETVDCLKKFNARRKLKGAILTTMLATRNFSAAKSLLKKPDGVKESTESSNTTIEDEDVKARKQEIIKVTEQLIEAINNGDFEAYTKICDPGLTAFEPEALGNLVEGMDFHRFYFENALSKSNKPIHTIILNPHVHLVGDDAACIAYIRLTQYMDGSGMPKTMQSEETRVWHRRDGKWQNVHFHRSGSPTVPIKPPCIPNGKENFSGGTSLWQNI

Experiments:
[1] = target: T1, PEAK2 W1382A (UniProt Q86YV5); assay: co-IP; association of PEAK2 and its mutants with CAMK2D (Supplementary Fig. 4); cells and details not shown; also with PEAK1 knockdown
T1 sequence: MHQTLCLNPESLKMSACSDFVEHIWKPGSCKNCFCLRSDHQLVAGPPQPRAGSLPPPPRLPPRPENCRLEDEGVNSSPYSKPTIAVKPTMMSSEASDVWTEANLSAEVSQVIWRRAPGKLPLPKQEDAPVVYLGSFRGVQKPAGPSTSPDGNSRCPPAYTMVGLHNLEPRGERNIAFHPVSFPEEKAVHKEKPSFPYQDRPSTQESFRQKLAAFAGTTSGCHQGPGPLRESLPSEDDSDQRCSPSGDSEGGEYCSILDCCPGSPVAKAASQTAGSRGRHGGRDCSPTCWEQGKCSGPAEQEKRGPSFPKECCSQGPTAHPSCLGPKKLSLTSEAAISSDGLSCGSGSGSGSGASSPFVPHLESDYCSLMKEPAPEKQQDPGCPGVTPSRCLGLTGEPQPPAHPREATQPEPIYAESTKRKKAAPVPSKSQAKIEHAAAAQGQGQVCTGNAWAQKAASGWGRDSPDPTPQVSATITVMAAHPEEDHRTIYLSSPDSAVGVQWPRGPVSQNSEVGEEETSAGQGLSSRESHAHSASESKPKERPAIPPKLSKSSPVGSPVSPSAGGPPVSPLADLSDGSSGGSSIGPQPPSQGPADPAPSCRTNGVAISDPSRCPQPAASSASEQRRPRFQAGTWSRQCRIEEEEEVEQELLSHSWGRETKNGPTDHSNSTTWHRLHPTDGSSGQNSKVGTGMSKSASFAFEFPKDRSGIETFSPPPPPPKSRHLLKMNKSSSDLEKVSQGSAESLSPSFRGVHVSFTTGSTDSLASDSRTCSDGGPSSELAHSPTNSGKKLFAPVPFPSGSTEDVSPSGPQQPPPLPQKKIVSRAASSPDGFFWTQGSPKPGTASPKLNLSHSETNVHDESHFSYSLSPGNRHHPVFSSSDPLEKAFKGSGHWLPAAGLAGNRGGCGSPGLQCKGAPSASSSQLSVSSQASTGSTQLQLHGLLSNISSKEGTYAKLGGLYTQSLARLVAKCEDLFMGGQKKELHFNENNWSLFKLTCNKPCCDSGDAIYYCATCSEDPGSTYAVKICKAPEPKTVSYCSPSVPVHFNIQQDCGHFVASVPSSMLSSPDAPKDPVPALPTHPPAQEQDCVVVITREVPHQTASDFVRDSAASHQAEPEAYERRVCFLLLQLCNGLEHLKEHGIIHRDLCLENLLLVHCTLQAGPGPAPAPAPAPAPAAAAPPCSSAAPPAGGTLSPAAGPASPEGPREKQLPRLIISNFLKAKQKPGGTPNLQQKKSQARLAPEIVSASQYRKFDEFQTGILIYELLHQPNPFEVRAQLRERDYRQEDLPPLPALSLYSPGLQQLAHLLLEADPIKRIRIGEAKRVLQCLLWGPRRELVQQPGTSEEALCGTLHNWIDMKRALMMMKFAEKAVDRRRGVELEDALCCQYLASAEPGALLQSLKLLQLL

[2] = target: T2, PEAK2 WT (N-terminal HA-tagged and C-terminal FLAG-tagged) (UniProt Q86YV5); assay: as above
T2 sequence: T1 sequence with A1382W

CAMK2D (partner of PEAK2 in Supplementary Fig. 4) (from UniProt Q13557 1-499) (enzyme)
binding [1]: binds | binding [2]: binds
